Some of the results follow.
Tests used:
Assay in all cases: log2 fold change, soluble protein after heating vs DMSO (PISA); higher = thermal stabilisation; K562 lysate, 10 uM; active = over 0.2 and 3.5 SD of the protein, either way, in both replicates (recomputed)
erlotinib = compound: C#Cc1cccc(Nc2ncnc3cc(OCCOC)c(OCCOC)cc23)c1 [erlotinib]
Method in brief: (§1)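 K562 pellets were dounce-homogenised in PBS pH 7.4 containing 1 mM MgCl2, and the crude extract, at 1 mg/mL protein, was exposed to 10 μM compound for 30 min. Aliquots were heated for 3 min across 48°C-58°C, pooled, brought to 0.5% NP-40 at 4°C and spun at 21,000xg for 90 min, with the supernatant taken as soluble protein. TMTpro 16plex LC-MS/MS with equalised channel sums quantified that protein. Values are log-two fold changes in thermal stability relative to solvent controls, taken from duplicates.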

The chains behind the UniProt entries cited, without tags or fusion partners. Where a name states a change or a piece, a line headed by the entry shows the natural chain unless it says otherwise.
UniProt Q9P2R6: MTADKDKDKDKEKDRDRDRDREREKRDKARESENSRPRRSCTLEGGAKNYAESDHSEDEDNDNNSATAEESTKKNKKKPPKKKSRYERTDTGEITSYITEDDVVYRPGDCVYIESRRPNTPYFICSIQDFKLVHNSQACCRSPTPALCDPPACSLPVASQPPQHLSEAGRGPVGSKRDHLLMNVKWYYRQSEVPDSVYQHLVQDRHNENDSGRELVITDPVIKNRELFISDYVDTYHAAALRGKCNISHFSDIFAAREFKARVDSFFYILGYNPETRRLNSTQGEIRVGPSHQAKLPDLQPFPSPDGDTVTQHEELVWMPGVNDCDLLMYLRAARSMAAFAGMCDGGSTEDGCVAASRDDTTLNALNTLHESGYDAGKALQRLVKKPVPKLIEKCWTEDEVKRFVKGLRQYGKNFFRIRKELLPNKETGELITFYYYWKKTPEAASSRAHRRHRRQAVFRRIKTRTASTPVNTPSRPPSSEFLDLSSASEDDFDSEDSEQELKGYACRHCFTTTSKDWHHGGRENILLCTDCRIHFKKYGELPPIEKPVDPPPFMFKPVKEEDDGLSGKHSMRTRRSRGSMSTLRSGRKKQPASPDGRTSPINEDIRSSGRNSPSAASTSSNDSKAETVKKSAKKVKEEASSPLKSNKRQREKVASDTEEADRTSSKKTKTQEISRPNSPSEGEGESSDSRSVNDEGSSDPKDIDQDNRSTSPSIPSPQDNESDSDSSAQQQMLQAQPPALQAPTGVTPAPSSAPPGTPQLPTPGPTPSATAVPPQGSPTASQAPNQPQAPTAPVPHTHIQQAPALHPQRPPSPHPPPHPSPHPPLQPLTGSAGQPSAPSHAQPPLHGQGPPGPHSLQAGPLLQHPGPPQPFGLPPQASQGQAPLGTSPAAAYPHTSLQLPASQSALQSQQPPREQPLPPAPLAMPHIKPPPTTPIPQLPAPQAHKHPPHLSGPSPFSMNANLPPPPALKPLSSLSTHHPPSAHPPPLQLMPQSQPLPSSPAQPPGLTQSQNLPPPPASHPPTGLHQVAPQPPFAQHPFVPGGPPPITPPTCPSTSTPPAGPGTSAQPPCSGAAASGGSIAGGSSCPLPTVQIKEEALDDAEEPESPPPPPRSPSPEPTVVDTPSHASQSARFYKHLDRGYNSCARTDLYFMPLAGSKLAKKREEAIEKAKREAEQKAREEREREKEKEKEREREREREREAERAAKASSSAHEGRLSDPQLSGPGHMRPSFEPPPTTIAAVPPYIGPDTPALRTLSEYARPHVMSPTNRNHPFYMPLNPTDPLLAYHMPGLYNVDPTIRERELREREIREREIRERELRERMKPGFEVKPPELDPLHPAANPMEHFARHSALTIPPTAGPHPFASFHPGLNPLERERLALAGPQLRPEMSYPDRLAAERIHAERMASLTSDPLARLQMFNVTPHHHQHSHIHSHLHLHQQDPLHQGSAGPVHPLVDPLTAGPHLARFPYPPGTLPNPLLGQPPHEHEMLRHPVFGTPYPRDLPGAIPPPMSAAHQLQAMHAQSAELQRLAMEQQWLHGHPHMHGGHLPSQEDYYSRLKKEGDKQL
UniProt Q14257: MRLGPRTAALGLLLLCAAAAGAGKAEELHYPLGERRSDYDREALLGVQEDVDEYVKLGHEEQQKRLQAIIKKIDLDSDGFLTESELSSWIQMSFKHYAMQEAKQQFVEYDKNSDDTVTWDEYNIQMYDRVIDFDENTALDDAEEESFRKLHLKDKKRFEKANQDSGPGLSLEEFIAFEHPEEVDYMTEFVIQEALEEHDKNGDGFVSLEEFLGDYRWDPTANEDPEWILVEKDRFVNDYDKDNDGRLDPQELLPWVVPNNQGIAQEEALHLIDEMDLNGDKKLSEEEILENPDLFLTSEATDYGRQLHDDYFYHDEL
UniProt P20936: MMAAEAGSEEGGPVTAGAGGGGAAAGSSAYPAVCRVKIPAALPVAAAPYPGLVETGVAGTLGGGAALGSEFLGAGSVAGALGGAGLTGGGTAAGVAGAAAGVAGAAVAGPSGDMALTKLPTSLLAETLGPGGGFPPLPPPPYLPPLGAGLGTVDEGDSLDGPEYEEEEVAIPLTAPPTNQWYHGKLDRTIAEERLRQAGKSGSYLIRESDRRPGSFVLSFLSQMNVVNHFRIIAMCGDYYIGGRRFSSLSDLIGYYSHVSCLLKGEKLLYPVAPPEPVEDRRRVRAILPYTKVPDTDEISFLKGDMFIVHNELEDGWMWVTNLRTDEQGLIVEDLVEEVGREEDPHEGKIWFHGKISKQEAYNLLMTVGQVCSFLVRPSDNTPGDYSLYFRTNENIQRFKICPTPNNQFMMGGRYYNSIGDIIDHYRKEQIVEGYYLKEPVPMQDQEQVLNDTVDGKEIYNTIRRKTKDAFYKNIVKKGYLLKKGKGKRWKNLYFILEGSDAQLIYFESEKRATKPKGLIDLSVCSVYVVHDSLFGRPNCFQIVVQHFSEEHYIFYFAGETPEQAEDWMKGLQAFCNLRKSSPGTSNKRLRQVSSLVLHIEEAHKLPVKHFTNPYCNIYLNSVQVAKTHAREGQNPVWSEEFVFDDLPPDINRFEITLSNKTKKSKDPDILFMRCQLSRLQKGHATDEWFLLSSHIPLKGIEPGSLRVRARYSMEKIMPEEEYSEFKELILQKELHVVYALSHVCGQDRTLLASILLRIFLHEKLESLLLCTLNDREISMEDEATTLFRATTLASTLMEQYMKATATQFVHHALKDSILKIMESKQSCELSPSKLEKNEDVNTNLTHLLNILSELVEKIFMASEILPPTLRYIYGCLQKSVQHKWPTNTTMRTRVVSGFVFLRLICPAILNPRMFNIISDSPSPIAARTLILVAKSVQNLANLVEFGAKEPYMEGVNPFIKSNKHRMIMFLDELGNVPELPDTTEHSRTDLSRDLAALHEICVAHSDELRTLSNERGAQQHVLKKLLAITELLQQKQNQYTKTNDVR
UniProt Q15283: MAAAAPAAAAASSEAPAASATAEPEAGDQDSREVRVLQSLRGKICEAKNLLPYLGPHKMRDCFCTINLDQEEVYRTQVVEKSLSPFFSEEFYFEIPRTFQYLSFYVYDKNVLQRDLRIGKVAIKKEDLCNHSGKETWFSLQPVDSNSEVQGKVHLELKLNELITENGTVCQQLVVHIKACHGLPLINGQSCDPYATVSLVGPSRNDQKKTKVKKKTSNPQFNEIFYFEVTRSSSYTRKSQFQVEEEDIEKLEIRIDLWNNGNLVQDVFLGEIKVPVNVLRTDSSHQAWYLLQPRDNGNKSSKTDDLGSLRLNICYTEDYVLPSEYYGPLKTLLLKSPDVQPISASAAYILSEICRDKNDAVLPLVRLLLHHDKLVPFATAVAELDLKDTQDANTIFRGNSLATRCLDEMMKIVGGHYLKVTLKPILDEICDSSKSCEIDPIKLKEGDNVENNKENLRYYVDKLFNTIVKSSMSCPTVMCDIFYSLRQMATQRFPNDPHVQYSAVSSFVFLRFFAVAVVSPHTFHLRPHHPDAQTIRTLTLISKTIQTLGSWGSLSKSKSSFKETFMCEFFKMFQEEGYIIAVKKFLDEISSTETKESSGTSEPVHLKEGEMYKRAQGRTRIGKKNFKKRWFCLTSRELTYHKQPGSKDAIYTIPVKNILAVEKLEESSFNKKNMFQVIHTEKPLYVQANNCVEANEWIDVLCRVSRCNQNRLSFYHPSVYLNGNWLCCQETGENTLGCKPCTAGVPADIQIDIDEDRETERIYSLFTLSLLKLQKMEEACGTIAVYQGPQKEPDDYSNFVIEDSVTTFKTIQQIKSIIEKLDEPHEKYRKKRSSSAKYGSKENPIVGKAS
UniProt Q14644: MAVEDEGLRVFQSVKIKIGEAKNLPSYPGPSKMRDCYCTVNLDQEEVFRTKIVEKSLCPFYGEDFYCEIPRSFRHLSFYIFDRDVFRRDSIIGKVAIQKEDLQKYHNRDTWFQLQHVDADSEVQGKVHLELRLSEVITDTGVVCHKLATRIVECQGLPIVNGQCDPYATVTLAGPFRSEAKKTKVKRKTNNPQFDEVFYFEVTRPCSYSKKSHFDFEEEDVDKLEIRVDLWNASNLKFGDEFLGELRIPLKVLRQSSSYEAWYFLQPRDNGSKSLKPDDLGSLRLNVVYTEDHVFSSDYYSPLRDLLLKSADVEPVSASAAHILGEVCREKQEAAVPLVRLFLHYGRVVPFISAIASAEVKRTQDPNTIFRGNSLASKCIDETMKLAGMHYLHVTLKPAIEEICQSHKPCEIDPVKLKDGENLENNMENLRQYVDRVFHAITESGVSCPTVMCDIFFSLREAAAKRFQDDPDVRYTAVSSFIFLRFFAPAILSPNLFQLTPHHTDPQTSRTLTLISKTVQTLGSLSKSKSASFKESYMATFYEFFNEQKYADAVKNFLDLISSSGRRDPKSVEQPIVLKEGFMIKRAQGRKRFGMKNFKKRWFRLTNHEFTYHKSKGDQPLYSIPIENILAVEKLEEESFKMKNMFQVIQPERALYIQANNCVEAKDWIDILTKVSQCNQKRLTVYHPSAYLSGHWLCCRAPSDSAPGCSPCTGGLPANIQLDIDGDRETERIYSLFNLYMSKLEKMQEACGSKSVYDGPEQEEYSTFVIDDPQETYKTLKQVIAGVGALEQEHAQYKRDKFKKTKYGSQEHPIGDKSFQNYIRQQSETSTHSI
UniProt Q7Z6E9: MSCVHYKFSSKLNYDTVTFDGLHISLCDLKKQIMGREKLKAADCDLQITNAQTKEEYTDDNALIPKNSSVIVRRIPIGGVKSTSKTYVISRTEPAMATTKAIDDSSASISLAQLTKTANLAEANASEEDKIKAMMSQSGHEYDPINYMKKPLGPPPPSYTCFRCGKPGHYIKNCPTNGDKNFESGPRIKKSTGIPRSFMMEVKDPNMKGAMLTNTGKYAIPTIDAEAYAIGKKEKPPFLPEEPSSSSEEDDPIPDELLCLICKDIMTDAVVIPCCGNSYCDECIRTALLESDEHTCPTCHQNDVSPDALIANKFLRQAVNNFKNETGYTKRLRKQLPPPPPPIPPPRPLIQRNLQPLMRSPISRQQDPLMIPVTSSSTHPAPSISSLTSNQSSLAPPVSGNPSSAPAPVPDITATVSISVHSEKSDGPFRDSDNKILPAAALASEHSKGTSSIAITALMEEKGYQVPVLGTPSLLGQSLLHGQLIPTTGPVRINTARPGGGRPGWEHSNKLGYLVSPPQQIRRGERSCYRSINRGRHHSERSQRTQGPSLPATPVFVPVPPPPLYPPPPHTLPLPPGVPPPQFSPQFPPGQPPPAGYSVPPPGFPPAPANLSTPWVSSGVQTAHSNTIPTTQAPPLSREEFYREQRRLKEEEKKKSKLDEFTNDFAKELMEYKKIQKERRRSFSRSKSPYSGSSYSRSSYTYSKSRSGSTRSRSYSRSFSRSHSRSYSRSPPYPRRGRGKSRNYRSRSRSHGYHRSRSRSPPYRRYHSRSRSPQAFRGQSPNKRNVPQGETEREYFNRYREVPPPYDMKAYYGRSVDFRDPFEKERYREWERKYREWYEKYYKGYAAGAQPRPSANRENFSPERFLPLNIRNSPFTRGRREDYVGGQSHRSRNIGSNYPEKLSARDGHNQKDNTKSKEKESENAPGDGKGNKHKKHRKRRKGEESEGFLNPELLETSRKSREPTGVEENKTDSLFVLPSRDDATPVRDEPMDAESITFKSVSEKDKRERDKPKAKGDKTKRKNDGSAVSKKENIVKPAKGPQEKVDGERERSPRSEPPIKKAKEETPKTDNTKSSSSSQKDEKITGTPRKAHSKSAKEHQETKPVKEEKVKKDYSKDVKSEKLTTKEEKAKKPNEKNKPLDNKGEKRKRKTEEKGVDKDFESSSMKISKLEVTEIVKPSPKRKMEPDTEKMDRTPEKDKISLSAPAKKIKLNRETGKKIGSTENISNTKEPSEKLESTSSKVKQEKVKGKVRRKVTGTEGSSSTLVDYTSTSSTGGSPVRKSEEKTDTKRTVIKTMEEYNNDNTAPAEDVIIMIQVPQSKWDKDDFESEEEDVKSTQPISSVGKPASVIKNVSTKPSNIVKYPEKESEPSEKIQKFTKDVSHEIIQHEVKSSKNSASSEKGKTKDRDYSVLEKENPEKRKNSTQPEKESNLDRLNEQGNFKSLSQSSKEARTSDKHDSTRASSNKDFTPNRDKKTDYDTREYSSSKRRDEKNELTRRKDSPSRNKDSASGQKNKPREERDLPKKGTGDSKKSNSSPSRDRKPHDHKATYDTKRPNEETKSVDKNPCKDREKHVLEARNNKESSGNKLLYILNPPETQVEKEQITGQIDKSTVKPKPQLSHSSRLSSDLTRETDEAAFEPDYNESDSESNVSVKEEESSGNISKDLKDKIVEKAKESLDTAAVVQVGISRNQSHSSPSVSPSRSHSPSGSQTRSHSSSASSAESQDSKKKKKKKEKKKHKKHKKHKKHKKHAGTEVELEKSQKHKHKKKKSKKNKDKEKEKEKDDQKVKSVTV

[1] = compound: C/C(=N\NC(=O)C1=CC(=CC=C1)S(=O)(=O)N2CCOCC2)/C3=C(C=CC(=C3)Cl)O
Method in brief: as §1

[2] = compound: C1=CC(=CC=C1C2=NC3=C(N2)C=C(C=C3)C(=O)N)OC4=CC=C(C=C4)Cl
Method in brief: as §1

[3] = compound: C1=CC2=C(C=CC(=C2)/C=C\3/C(=O)NC(=NCC4=CC=CS4)S3)N=C1
Method in brief: as §1

[4] = compound: C1=CC2=NC=CN=C2C=C1/C=C/3\C(=O)NC(=O)S3
Method in brief: as §1

[5] = compound: C1=CC=C(C=C1)C2=NC(=C(N2)C3=CC=NC=C3)C4=CC(=C(C=C4)Cl)O
Method in brief: as §1

[6] = compound: C1=CC=C2C(=C1)C3=NNC4=CC=CC(=C43)C2=O
Method in brief: as §1

[7] = compound: C1CCN(C1)C(=O)NC2=CC=CC(=C2)NC3=NC=C(C(=N3)NCCC4=CN=CN4)Br
Method in brief: as §1

[8] = compound: C1CN(CCC1(CC2=CC=C(C=C2)Cl)N)C3=NC=NC4=C3C=CN4
Method in brief: as §1

IRAK-1-4 Inhibitor I = compound: C1COCCN1CCN2C3=CC=CC=C3N=C2NC(=O)C4=CC(=CC=C4)[N+](=O)[O-] [IRAK-1-4 Inhibitor I]
Method in brief: as §1

ibrutinib = compound: C=CC(=O)N1CCC[C@@H](n2nc(-c3ccc(Oc4ccccc4)cc3)c3c(N)ncnc32)C1 [ibrutinib]
Method in brief: as §1

[9] = compound: CC(=O)c1cnc2ccc(-c3cc(Cl)c(O)c(Cl)c3)nc2c1N[C@H]1CC[C@H](CN(C)C)CC1
Method in brief: as §1

ralimetinib = compound: CC(C)(C)Cn1c(N)nc2ccc(-c3[nH]c(C(C)(C)C)nc3-c3ccc(F)cc3)nc21 [ralimetinib]
Method in brief: as §1

[10] = compound: CC(C)(O)CC(=O)NCCn1ccc2ncnc(Nc3ccc(Oc4cccc(C(F)(F)F)c4)c(Cl)c3)c21
Method in brief: as §1

[11] = compound: CC(C)C1=C2N=C(C=C(N2N=C1)NCC3=CC=CC=C3)NCCCCCCN
Method in brief: as §1

[12] = compound: CC1=C(C(CC(=O)N1)C2=CC=C(C=C2)C(F)(F)F)C(=O)NC3=C(C=C4C(=C3)C=NN4)F
Method in brief: as §1

[13] = compound: CC1=C(C2=C(C=C1)C(=O)C3=CC=CC=C3N2CCCN)C
Method in brief: as §1

[14] = compound: CC1=C(C=C(C=C1)NC(=O)C2=CC(=CC=C2)C(C)(C)C#N)NC3=CC4=C(C=C3)N=CN(C4=O)C
Method in brief: as §1

[15] = compound: CC1=C(C=C(C=C1)NC(=O)C2=CC(=CC=C2)N(C)C)NC(=O)C3=CC=C(C=C3)O
Method in brief: as §1

[16] = compound: CC1=CC=C(C=C1)SC2=C3C=C(SC3=CN=C2)C(=O)N
Method in brief: as §1

Measured: log2 fold change

RERE (UniProt Q9P2R6)
inactive: erlotinib 0.013 | [1] -0.058 | [2] -0.008 | [3] -0.017 | [4] -0.041 | [5] 0.008 | [6] -0.022 | [7] 0.031 | [8] -0.034 | IRAK-1-4 Inhibitor I -0.039 | ibrutinib -0.007 | [9] -0.015 | ralimetinib 0.004 | [10] -0.065 | [11] 0.019 | [12] -0.02 | [13] -0.008 | [14] -0.129 | [15] 0.03 | [16] -0.084

RBBP4 (UniProt Q09028)
inactive: erlotinib -0.007 | [1] 0.013 | [2] 0 | [3] -0.021 | [4] 0 | [5] 0.021 | [6] 0.02 | [7] 0.019 | [8] -0.001 | IRAK-1-4 Inhibitor I 0.051 | ibrutinib 0.031 | [9] -0.01 | ralimetinib 0.031 | [10] 0.024 | [11] -0.006 | [12] -0.022 | [13] 0.003 | [14] 0.035 | [15] -0.021 | [16] -0.017

RFX5 (UniProt P48382)
inactive: erlotinib -0.022 | [1] 0.085 | [2] 0.145 | [3] 0.006 | [4] -0.035 | [5] -0.038 | [6] -0.071 | [7] 0 | [8] -0.042 | IRAK-1-4 Inhibitor I -0.025 | ibrutinib -0.061 | [9] -0.01 | ralimetinib 0.046 | [10] 0.014 | [11] -0.092 | [12] 0.077 | [13] 0.008 | [14] 0.06 | [15] -0.057 | [16] 0.012

RCN2 isoform 2 (UniProt Q14257)
inactive: erlotinib -0.055 | [1] 0.017 | [2] -0.035 | [3] 0.019 | [4] -0.015 | [5] 0.01 | [6] 0.007 | [7] 0.027 | [8] -0.042 | IRAK-1-4 Inhibitor I 0.022 | ibrutinib 0.017 | [9] -0.019 | ralimetinib 0.031 | [10] -0.015 | [11] -0.048 | [12] 0.012 | [13] 0.01 | [14] -0.004 | [15] 0.011 | [16] -0.03

RBBP5 (UniProt Q15291)
inactive: erlotinib 0.005 | [1] -0.037 | [2] 0.028 | [3] -0.009 | [4] -0.035 | [5] -0.002 | [6] 0.006 | [7] 0 | [8] -0.005 | IRAK-1-4 Inhibitor I 0 | ibrutinib -0.001 | [9] -0.033 | ralimetinib 0.036 | [10] -0.002 | [11] -0.003 | [12] -0.008 | [13] 0.046 | [14] 0.02 | [15] -0.003 | [16] -0.029

RASA1 (UniProt P20936)
inactive: erlotinib 0.024 | [1] 0.014 | [2] -0.007 | [3] -0.008 | [4] 0.009 | [5] -0.004 | [6] 0.01 | [7] -0.052 | [8] 0.041 | IRAK-1-4 Inhibitor I 0.019 | ibrutinib -0.009 | [9] -0.012 | ralimetinib 0.025 | [10] -0.034 | [11] -0.002 | [12] 0.008 | [13] 0.01 | [14] -0.013 | [15] 0.017 | [16] -0.006

RCSD1 (UniProt Q6JBY9)
inactive: erlotinib -0.005 | [1] -0.024 | [2] 0.04 | [3] -0.035 | [4] -0.024 | [5] 0.027 | [6] 0.02 | [7] -0.002 | [8] 0.002 | IRAK-1-4 Inhibitor I 0.007 | ibrutinib 0.02 | [9] -0.005 | ralimetinib -0.01 | [10] -0.022 | [11] 0.006 | [12] -0.012 | [13] -0.024 | [14] 0.027 | [15] 0.026 | [16] -0.012

RASA2 (UniProt Q15283)
inactive: erlotinib 0.016 | [1] -0.001 | [2] -0.054 | [3] -0.071 | [4] -0.028 | [5] 0.018 | [6] -0.069 | [7] -0.024 | [8] 0.028 | IRAK-1-4 Inhibitor I -0.003 | ibrutinib 0.034 | [9] -0.011 | ralimetinib 0.006 | [10] -0.038 | [11] 0.014 | [12] 0.023 | [13] 0.004 | [14] 0.033 | [15] 0.019 | [16] -0.013

Quoted at random: two entries already listed.
RBBP5 (UniProt Q15291)
inactive: erlotinib 0.005 | [1] -0.037 | [2] 0.028 | [3] -0.009 | [4] -0.035 | [5] -0.002 | [6] 0.006 | [7] 0 | [8] -0.005 | IRAK-1-4 Inhibitor I 0 | ibrutinib -0.001 | [9] -0.033 | ralimetinib 0.036 | [10] -0.002 | [11] -0.003 | [12] -0.008 | [13] 0.046 | [14] 0.02 | [15] -0.003 | [16] -0.029

RCN2 isoform 2 (UniProt Q14257)
inactive: erlotinib -0.055 | [1] 0.017 | [2] -0.035 | [3] 0.019 | [4] -0.015 | [5] 0.01 | [6] 0.007 | [7] 0.027 | [8] -0.042 | IRAK-1-4 Inhibitor I 0.022 | ibrutinib 0.017 | [9] -0.019 | ralimetinib 0.031 | [10] -0.015 | [11] -0.048 | [12] 0.012 | [13] 0.01 | [14] -0.004 | [15] 0.011 | [16] -0.03

Continuation:

RBM23 isoform 2 (UniProt Q86U06)
inactive: erlotinib -0.056 | [1] 0.007 | [2] 0.012 | [3] -0.106 | [4] 0.148 | [5] -0.052 | [6] 0.001 | [7] -0.175 | [8] 0.091 | IRAK-1-4 Inhibitor I -0.004 | ibrutinib -0.125 | [9] -0.014 | ralimetinib 0.041 | [10] -0.096 | [11] 0.081 | [12] 0.151 | [13] -0.122 | [14] 0.112 | [15] -0.022 | [16] 0.05

RAVER1 (UniProt E9PAU2)
inactive: erlotinib 0.034 | [1] 0.035 | [2] 0.029 | [3] -0.01 | [4] -0.003 | [5] -0.016 | [6] 0 | [7] -0.06 | [8] 0.044 | IRAK-1-4 Inhibitor I 0.016 | ibrutinib -0.032 | [9] 0.021 | ralimetinib 0.016 | [10] 0.007 | [11] 0.012 | [12] 0.066 | [13] -0.003 | [14] 0.066 | [15] -0.014 | [16] 0.005

RFX7 (UniProt Q2KHR2)
inactive: erlotinib -0.05 | [1] 0.007 | [2] -0.001 | [3] 0.095 | [4] 0.032 | [5] 0.027 | [6] 0.033 | [7] -0.04 | [8] 0.061 | IRAK-1-4 Inhibitor I 0.067 | ibrutinib 0.057 | [9] -0.075 | ralimetinib -0.092 | [10] 0.152 | [11] -0.036 | [12] 0.006 | [13] -0.11 | [14] -0.017 | [15] 0.018 | [16] -0.034

RASA3 (UniProt Q14644)
inactive: erlotinib 0.02 | [1] -0.089 | [2] 0.045 | [3] -0.001 | [4] 0.046 | [5] 0.021 | [6] 0.004 | [7] -0.043 | [8] -0.005 | IRAK-1-4 Inhibitor I 0.02 | ibrutinib 0 | [9] -0.031 | ralimetinib -0.012 | [10] -0.054 | [11] 0.02 | [12] -0.048 | [13] 0.031 | [14] -0.026 | [15] -0.018 | [16] -0.078

RBBP6 (UniProt Q7Z6E9)
inactive: erlotinib 0 | [1] -0.109 | [2] 0.005 | [3] -0.02 | [4] -0.016 | [5] -0.016 | [6] 0.037 | [7] 0.059 | [8] 0.006 | IRAK-1-4 Inhibitor I -0.009 | ibrutinib 0.039 | [9] 0.025 | ralimetinib -0.015 | [10] -0.017 | [11] 0.029 | [12] 0.003 | [13] -0.049 | [14] 0 | [15] -0.003 | [16] 0.002

RBM34 (UniProt P42696)
inactive: erlotinib -0.02 | [1] -0.142 | [2] -0.053 | [3] 0.044 | [4] 0.008 | [5] 0.012 | [6] 0.016 | [7] -0.055 | [8] 0.012 | IRAK-1-4 Inhibitor I -0.053 | ibrutinib -0.038 | [9] -0.022 | ralimetinib -0.015 | [10] 0.022 | [11] 0.006 | [12] -0.011 | [13] -0.027 | [14] 0.034 | [15] 0.043 | [16] -0.01

RBBP7 (UniProt Q16576)
inactive: erlotinib -0.038 | [1] -0.032 | [2] -0.021 | [3] -0.005 | [4] 0.007 | [5] -0.014 | [6] -0.008 | [7] 0.045 | [8] -0.022 | IRAK-1-4 Inhibitor I -0.082 | ibrutinib 0.062 | [9] 0.018 | ralimetinib 0.018 | [10] 0 | [11] -0.042 | [12] -0.003 | [13] 0.014 | [14] -0.114 | [15] 0.002 | [16] -0.03
